The record followed here is the supplement of paper PMC4604168 (melanoma cell lines).

What all share (assay): cleaved PARP positive nuclei fraction relative to DMSO control; melanoma cells; higher = more apoptosis
Common to all, as to conditions: library dose: low library concentration; 72 h

For assay [1], the system named is MZ2-MEL.
Assay [2] has as its system MeWo.
The subject of assay [3] is RPMI7951.
The subject of assay [4] is RVH-421.
The subject of assay [5] is SkMel28.
Assay [6] has as its system SkMel2.
For assay [7], the system named is SkMel30.
Assay [8] deals with UACC62.
The subject of assay [9] is WM115.
Assay [10] has as its system WM1716.
In assay [11] the test system is WM1745.
In assay [12] the test system is WM3526.
Assay [13] deals with WM3619.
The test system of assay [14] is WM451Lu.

Each structure is given as a SMILES string. This is one part of the list. Repeats are few or missing, and single values can be far off.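 The apoptosis fraction was the count of cleaved-PARP antibody-stained nuclei relative to all DNA-stained nuclei, imaged in 1,536-well plates. Screening doses were set so most cells survived, and baseline and induced cleaved-PARP levels vary greatly across cell lines.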

On to `CC1(C)CCC(c2ccc(Cl)cc2)=C(CN2CCN(c3ccc(C(=O)NS(=O)(=O)c4ccc(N[C@H](CCN5CCOCC5)CSc5ccccc5)c(S(=O)(=O)C(F)(F)F)c4)cc3)CC2)C1` + N.N.[Cl][Pt][Cl] [cisplatin] (first compound 0.4 µM, partner dose 1.6 µM), for which the “cleaved PARP positive nuclei fraction” value was 189% in assay [1]; 502% in assay [2]; 300% in assay [3]; 37.1% in [4]; 193% in [5]; 141% in assay [6]. The “cleaved PARP positive nuclei fraction” value was found to be 121% in [7]; 106% in [8]; 500% in [9]; 99.3% in [10]; 1050% in [11]; 42.3% in [12]. For the same compound, the entries for the “cleaved PARP positive nuclei fraction” value in [13] and in assay [14] were 133% and 79.7%, respectively.
For the compound `Nc1nc(F)nc2c1ncn2[C@@H]1O[C@H](CO)[C@@H](O)[C@@H]1O` [fludarabine] + C[As](C)SC[C@H](NC(=O)CC[C@H](N)C(=O)O)C(=O)NCC(=O)O [Darinaparsin] (first compound 0.2 µM, partner dose 0.4 µM), the “cleaved PARP positive nuclei fraction” value came out at 58.4% in [1]; 746% in assay [2]; 390% in [3]; 86.8% in [4]; 58.6% in [5]; 242% in assay [6]. Also, the “cleaved PARP positive nuclei fraction” value in assay [7] turned out to be 1550%; in [8] it was 19.4%; in [9] it was 186%; in assay [10], 52.9%; in assay [11] it was 81.9%; in assay [12] it was 1690%. Moreover, the “cleaved PARP positive nuclei fraction” value was determined as 97.8% in [13] and 388% in assay [14].
Consider `NC(=O)c1ccc(N(C(N)=O)c2c(F)cccc2F)nc1-c1ccc(F)cc1F` + N.N.[Cl][Pt][Cl] [cisplatin] (first compound 0.4 µM, partner dose 1.6 µM), for which the “cleaved PARP positive nuclei fraction” value was 102% in [1]; 66.7% in [2]; 23.7% in [3]; 67.9% in assay [4]; 93.1% in assay [5]; 86.7% in assay [6]. For the same compound, the “cleaved PARP positive nuclei fraction” value in assay [7] turned out to be 109%; in assay [8], 122%; in assay [9] it was 114%; in assay [10], 77.1%; in assay [11] it was 106%; in assay [12], 48.2%. Also, the “cleaved PARP positive nuclei fraction” value in assay [13] was found to be 82.4%; in assay [14], 76.3%.
Consider `N.N.[Cl][Pt][Cl]` [cisplatin] + C=C(c1ccc(C(=O)O)cc1)c1cc2c(cc1C)C(C)(C)CCC2(C)C [Bexarotene] (first compound 1.6 µM, partner dose 2 µM), for which the “cleaved PARP positive nuclei fraction” value came out at 22% in assay [1]; 119% in assay [2]; 38.4% in assay [3]; 75.7% in [4]; 41.6% in assay [5]; 157% in [6]. The “cleaved PARP positive nuclei fraction” value in assay [7] was 61.6%; in assay [8] it was 123%; in assay [9], 111%; in assay [10], 116%; in [11], 86.3%; in assay [12], 47.5%. For the same compound, the “cleaved PARP positive nuclei fraction” value in assay [13] was found to be 77.3%; in assay [14], 65.4%.
In the case of `Cn1cc(C2=C(c3cn(C4CCN(Cc5ccccn5)CC4)c4ccccc34)C(=O)NC2=O)c2ccccc21` [Enzastaurin] + CS(=O)(=O)CCNCc1ccc(-c2ccc3ncnc(Nc4ccc(OCc5cccc(F)c5)c(Cl)c4)c3c2)o1 [lapatinib] (first compound 0.8 µM, partner dose 0.8 µM), the “cleaved PARP positive nuclei fraction” value was found to be 72.6% in [1]; 69.9% in [2]; 254% in [3]; 122% in [4]; 43.7% in assay [5]; 244% in assay [6]. Also, the “cleaved PARP positive nuclei fraction” value in assay [7] worked out at 26.4%; in assay [8], 73.4%; in assay [9], 44.3%; in assay [10] it was 28.5%; in assay [11], 109%; in assay [12], 87%. Moreover, the entries for the “cleaved PARP positive nuclei fraction” value in [13] and in [14] were 103% and 267%, respectively.
As for `Cn1cc(C2=C(c3cn(C4CCN(Cc5ccccn5)CC4)c4ccccc34)C(=O)NC2=O)c2ccccc21` [Enzastaurin] + C[C@]1(c2nc3c(C(N)=O)cccc3[nH]2)CCCN1 [Veliparib] (first compound 0.8 µM, partner dose 1.4 µM), the “cleaved PARP positive nuclei fraction” value is 54.2% in [1]; 81.6% in assay [2]; 83.5% in assay [3]; 112% in assay [4]; 45.9% in assay [5]; 91.8% in assay [6]. The “cleaved PARP positive nuclei fraction” value in [7] was 114%; in [8], 46.1%; in [9], 124%; in assay [10], 83.5%; in assay [11], 109%; in assay [12] it was 73.9%. In addition, the entries for the “cleaved PARP positive nuclei fraction” value in assay [13] and in assay [14] were 92.5% and 861%, respectively.
Take `CC[C@]1(O)C[C@H]2CN(CCc3c([nH]c4ccccc34)[C@@](C(=O)OC)(c3cc4c(cc3OC)N(C=O)[C@H]3[C@@](O)(C(=O)OC)[C@H](OC(C)=O)[C@]5(CC)C=CCN6CC[C@]43[C@@H]65)C2)C1` [vincristine] + N.N.[Cl][Pt][Cl] [cisplatin] (first compound 0.0001 µM, partner dose 1.6 µM): the “cleaved PARP positive nuclei fraction” value in assay [1] turned out to be 83.8%; in [2] it was 190%; in [3], 83.8%; in assay [4], 157%; in [5] it was 62.7%; in assay [6] it was 52.2%. The “cleaved PARP positive nuclei fraction” value in [7] was determined as 61.8%; in assay [8], 53.7%; in assay [9], 76.9%; in assay [10] it was 139%; in assay [11] it was 86.6%; in [12], 56%. The “cleaved PARP positive nuclei fraction” value in assay [13] was determined as 83.4%; in assay [14], 182%.
Regarding `Cn1cc(C2=C(c3cn(C4CCN(Cc5ccccn5)CC4)c4ccccc34)C(=O)NC2=O)c2ccccc21` [Enzastaurin] + Cn1c(Nc2ccc(C(F)(F)F)cc2)nc2cc(Oc3ccnc(-c4ncc(C(F)(F)F)[nH]4)c3)ccc21 [CHIR265] (first compound 0.8 µM, partner dose 0.08 µM), the “cleaved PARP positive nuclei fraction” value in assay [1] was found to be 96.9%; in assay [2], 85.7%; in assay [3], 79.4%; in assay [4], 177%; in [5], 101%; in assay [6], 141%. Also, the “cleaved PARP positive nuclei fraction” value in assay [7] is 100%; in [8] it was 116%; in [9] it was 243%; in assay [10] it was 65.1%; in assay [11], 137%; in assay [12] it was 56.8%. For the same compound, the figures for the “cleaved PARP positive nuclei fraction” value in [13] and in assay [14] were 115% and 79.2%, respectively.
In the case of `O=C(/C=C/c1cccnc1)NCCCCC1CCN(C(=O)c2ccccc2)CC1` + N.N.[Cl][Pt][Cl] [cisplatin] (first compound 0.01 µM, partner dose 1.6 µM), the “cleaved PARP positive nuclei fraction” value in assay [1] turned out to be 390%; in assay [2] it was 68.8%; in assay [3] it was 30.3%; in [4], 221%; in assay [5] it was 147%; in assay [6], 2960%. Besides, the “cleaved PARP positive nuclei fraction” value in assay [7] was found to be 36.7%; in assay [8] it was 38.5%; in assay [9], 58.3%; in assay [10], 77.2%; in [11], 94.6%; in assay [12], 26%. Also, the “cleaved PARP positive nuclei fraction” value is 136% in [13] and 43.1% in assay [14].
For `N.N.[Cl][Pt][Cl]` [cisplatin] + Nc1ncn([C@H]2C[C@H](O)[C@@H](CO)O2)c(=O)n1 [decitabine] (first compound 1.6 µM, partner dose 0.1 µM), the “cleaved PARP positive nuclei fraction” value in assay [1] was 50.1%; in assay [2] it was 132%; in assay [3], 52.1%; in assay [4] it was 66%; in [5], 39.9%; in assay [6], 170%. Besides, the “cleaved PARP positive nuclei fraction” value in [7] is 76.1%; in assay [8], 134%; in assay [9] it was 205%; in assay [10], 45.6%; in [11] it was 98.2%; in [12] it was 282%. The “cleaved PARP positive nuclei fraction” value in [13] was found to be 108%; in [14], 69.8%.
